The values below come from paper PMC8124251.

Sequences of proteins named here, by UniProt entry; tags and fusion partners are left off. A change or cut given only in a name is not applied to a line headed by its entry. A line that says so, or that is headed by a name, gives the form on record, which may keep a tag or linker.
UniProt P45983: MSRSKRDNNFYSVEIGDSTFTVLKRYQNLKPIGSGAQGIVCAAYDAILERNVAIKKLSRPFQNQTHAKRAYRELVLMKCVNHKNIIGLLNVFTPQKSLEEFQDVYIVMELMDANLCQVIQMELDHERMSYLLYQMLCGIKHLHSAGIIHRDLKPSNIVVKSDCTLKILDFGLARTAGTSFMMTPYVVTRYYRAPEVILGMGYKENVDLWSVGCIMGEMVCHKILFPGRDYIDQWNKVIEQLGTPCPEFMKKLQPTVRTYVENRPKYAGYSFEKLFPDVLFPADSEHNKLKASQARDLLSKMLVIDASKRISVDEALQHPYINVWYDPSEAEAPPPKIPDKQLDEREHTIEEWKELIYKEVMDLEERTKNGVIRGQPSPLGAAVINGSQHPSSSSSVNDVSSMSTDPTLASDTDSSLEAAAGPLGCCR
JNK1, endogenous (human (endogenous in MCF7)) (P45983, form named): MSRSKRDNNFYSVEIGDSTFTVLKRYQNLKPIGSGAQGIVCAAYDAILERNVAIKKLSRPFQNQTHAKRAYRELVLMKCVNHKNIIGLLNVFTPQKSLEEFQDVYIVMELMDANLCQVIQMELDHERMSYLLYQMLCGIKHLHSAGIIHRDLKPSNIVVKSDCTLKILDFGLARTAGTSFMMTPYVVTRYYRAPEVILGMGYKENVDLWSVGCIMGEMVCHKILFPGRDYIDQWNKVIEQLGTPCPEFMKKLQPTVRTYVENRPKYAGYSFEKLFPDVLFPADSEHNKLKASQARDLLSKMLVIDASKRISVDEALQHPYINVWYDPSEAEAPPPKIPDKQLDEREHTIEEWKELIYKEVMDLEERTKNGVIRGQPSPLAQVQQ
UniProt P41279: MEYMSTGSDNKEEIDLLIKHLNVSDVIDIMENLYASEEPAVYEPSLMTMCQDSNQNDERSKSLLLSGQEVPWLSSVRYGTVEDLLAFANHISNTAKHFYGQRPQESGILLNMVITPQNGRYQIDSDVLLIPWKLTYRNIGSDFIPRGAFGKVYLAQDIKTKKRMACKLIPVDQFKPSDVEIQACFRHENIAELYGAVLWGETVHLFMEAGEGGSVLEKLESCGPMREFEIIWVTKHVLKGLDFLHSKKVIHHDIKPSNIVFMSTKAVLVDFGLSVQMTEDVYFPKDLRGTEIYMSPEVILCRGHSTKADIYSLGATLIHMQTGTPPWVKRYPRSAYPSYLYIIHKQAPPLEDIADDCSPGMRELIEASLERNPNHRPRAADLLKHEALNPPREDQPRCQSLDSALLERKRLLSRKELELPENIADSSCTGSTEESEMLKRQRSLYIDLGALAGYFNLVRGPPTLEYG

These are yes or no findings as the source states them, for the method shown. In cells and extracts the contact can be indirect. Some binding calls cover weakened binding; strength is not graded here.

Assay [1] addresses JNK1, endogenous (human (endogenous in MCF7)) (UniProt P45983). The assay is described as follows: co-IP; endogenous proteins; MCF7 cells starved 24 h, exposed to 25 ng/mL IL-33 for the indicated time; immunoprecipitation with JNK1 or JNK2 antibodies, immunoblot as indicated. (In general: In western blotting, separated proteins are transferred to a membrane and probed.)
The target of assay [2] is JNK2, endogenous (human (endogenous in MCF7)) (UniProt P45984). The assay is described as above.
The target of a further assay is V5-JNK1 (UniProt P45983). The assay is described as follows: co-IP; HEK293 cells co-expressing V5-JNK1 or V5-JNK2 with Myc-COT; immunoprecipitation with anti-V5, immunoblot with anti-Myc or anti-V5; lysis in 150 mM NaCl, 50 mM Tris-HCl pH 7.4, 0.25% sodium deoxycholate, 1 mM EDTA, 1% NP40; overnight at 4 °C.
Another assay concerns the target V5-JNK2 (UniProt P45984). The description is as above.

In the case of “COT (Cancer Osaka thyroid), endogenous (from UniProt P41279-1 1-467) (enzyme)”, the binding entry in assay [1] and in assay [2] was “binds” throughout.
Regarding “Myc-COT (Cancer Osaka thyroid) (from UniProt P41279 1-467) (enzyme)”, the binding result with V5-JNK1 and with V5-JNK2 was “binds” throughout.
